Laboratory results from patent US20090264447A1, “Pyrimidine compounds for combating pathogenic fungi and cancer” (BASF SE, priority 2006, published 2009).
Some results were stated once for a whole list of compounds, not compound by compound.

Legend:
Pyricularia oryzae = assay type: cell-based; details: 125 ppm
Botrytis cinerea = assay: Microtiter test, activity against the gray mold pathogen Botrytis cinerea; assay type: cell-based; details: 125 ppm; measured at 405 nm on day 7 after inoculation; active compound-free control = 100%

Q: Which relative pathogen growth (Pyricularia oryzae) does the source give for CC1CCN(c2nc(-n3cccn3)nc(Cl)c2-c2c(F)cc(OCCCOc3cc(Cl)ncn3)cc2F)CC1 [Example 12] here?
A: at most 14%

Q: Which results are given for CC1CCN(c2nc(C#N)nc(Cl)c2-c2c(F)cc(OCCCn3cncn3)cc2F)CC1 [Example 30]?
A: relative pathogen growth (Botrytis cinerea): at most 16%; relative pathogen growth (Pyricularia oryzae): at most 14%

Q: CN(CCCOc1cc(F)c(-c2c(Cl)nc(C#N)nc2N2CCCCCC2)c(F)c1)C(=O)OC(C)(C)C [Example 34] was tested. Which relative pathogen growth (Botrytis cinerea) did it give?
A: at most 16%

Q: What does the source list for COCCCOc1cc(F)c(-c2c(Cl)nc(C(N)=NOC)nc2NC(C)C(C)(C)C)c(F)c1 (stereo not shown) [Example 7]?
A: relative pathogen growth (Botrytis cinerea): at most 16%; relative pathogen growth (Pyricularia oryzae): at most 14%

Q: With CC1CCN(c2nc(-n3cncn3)nc(Cl)c2-c2c(F)cc(OCCCN(C)C(=O)OC(C)(C)C)cc2F)CC1 [Example 22] as the compound, how does the relative pathogen growth (Pyricularia oryzae) read?
A: at most 14%

Q: CC1CCN(c2nc(-n3cncn3)nc(Cl)c2-c2c(F)cc(OCCCOc3cc(Cl)ncn3)cc2F)CC1 [Example 23] was tested. Which relative pathogen growth (Botrytis cinerea) did it give?
A: at most 16%

Q: With COCCCOc1cc(F)c(-c2c(Cl)nc(-n3ccnn3)nc2NC(C)C(C)(C)C)c(F)c1 (stereo not shown) [Example 18] as the compound, how does the relative pathogen growth (Botrytis cinerea) read?
A: at most 16%

Q: What about the relative pathogen growth (Pyricularia oryzae) of the same compound?
A: at most 14%

Q: CC1CCN(c2nc(C#N)nc(Cl)c2-c2c(F)cc(OCCCN(C)C)cc2F)CC1 [Example 27] was tested. Which relative pathogen growth (Botrytis cinerea) did it give?
A: at most 16%

Q: And the relative pathogen growth (Pyricularia oryzae)?
A: at most 14%

Q: COCCCOc1cc(F)c(-c2c(Cl)nc(C#N)nc2NC(C)C(C)(C)C)c(F)c1 (stereo not shown) [Example 35] was tested. Which relative pathogen growth (Botrytis cinerea) did it give?
A: at most 16%

Q: And the relative pathogen growth (Pyricularia oryzae)?
A: at most 14%

Q: How did the relative pathogen growth (Botrytis cinerea) turn out when COCCCOc1cc(F)c(-c2c(Cl)nc(-n3cncn3)nc2NC(C)C(C)(C)C)c(F)c1 (stereo not shown) [Example 24] was run?
A: at most 16%

Q: And the relative pathogen growth (Pyricularia oryzae)?
A: at most 14%

Q: CC1CCN(c2nc(C#N)nc(Cl)c2-c2c(F)cc(OCCCOc3cc(Cl)ncn3)cc2F)CC1 [Example 32] was tested. Which relative pathogen growth (Pyricularia oryzae) did it give?
A: at most 14%

Q: With CC1CCN(c2nc(C#N)nc(Cl)c2-c2c(F)cc(OCCCN3CCCC3=O)cc2F)CC1 [Example 29] as the compound, how does the relative pathogen growth (Botrytis cinerea) read?
A: at most 16%

Q: And the relative pathogen growth (Pyricularia oryzae)?
A: at most 14%

Q: How did the relative pathogen growth (Pyricularia oryzae) turn out when CC1CCN(c2nc(-n3cccn3)nc(Cl)c2-c2c(F)cc(OCCCN(C)C(=O)OC(C)(C)C)cc2F)CC1 [Example 11] was run?
A: at most 14%

Q: CC(C)C(C)Nc1nc(C#N)nc(Cl)c1-c1c(F)cc(OCCCCl)cc1F (stereo not shown) [Example 38] was tested. Which relative pathogen growth (Pyricularia oryzae) did it give?
A: at most 14%

Q: Which results are given for COCCCOc1cc(F)c(-c2c(Cl)nc(-n3cccn3)nc2NC(C)C(C)(C)C)c(F)c1 (stereo not shown) [Example 15]?
A: relative pathogen growth (Botrytis cinerea): at most 16%; relative pathogen growth (Pyricularia oryzae): at most 14%

Q: How did the relative pathogen growth (Botrytis cinerea) turn out when COCCCOc1cc(F)c(-c2c(Cl)nc(-n3cccn3)nc2NC(C)C(C)C)c(F)c1 (stereo not shown) [Example 16] was run?
A: at most 16%

Q: And the relative pathogen growth (Pyricularia oryzae)?
A: at most 14%

Q: Which results are given for COCCCOc1cc(F)c(-c2c(Cl)nc(C#N)nc2N2CCC(C)CC2)c(F)c1 [Example 31]?
A: relative pathogen growth (Botrytis cinerea): at most 16%; relative pathogen growth (Pyricularia oryzae): at most 14%

Q: Which relative pathogen growth (Pyricularia oryzae) does the source give for COCCCOc1cc(F)c(-c2c(Cl)nc(C#N)nc2NC(C)C(C)C)c(F)c1 (stereo not shown) [Example 36] here?
A: at most 14%

Q: COCCCOc1cc(F)c(-c2c(Cl)nc(-n3ccnn3)nc2NC(C)C(C)C)c(F)c1 (stereo not shown) [Example 17] was tested. Which relative pathogen growth (Botrytis cinerea) did it give?
A: at most 16%

Q: What about the relative pathogen growth (Pyricularia oryzae) of the same compound?
A: at most 14%

Q: How did the relative pathogen growth (Botrytis cinerea) turn out when CON=C(N)c1nc(Cl)c(-c2c(F)cc(OCCCN(C)C)cc2F)c(N2CCC(C)CC2)n1 [Example 2] was run?
A: at most 16%

Q: Which relative pathogen growth (Botrytis cinerea) does the source give for COCCCOc1cc(F)c(-c2c(Cl)nc(-n3nccn3)nc2NC(C)C(C)(C)C)c(F)c1 (stereo not shown) [Example 20] here?
A: at most 16%

Q: What about the relative pathogen growth (Pyricularia oryzae) of the same compound?
A: at most 14%

Q: How did the relative pathogen growth (Botrytis cinerea) turn out when COCCCOc1cc(F)c(-c2c(Cl)nc(-n3nccn3)nc2NC(C)C(C)C)c(F)c1 (stereo not shown) [Example 19] was run?
A: at most 16%

Q: And the relative pathogen growth (Pyricularia oryzae)?
A: at most 14%

Q: Which relative pathogen growth (Pyricularia oryzae) does the source give for CNCCCOc1cc(F)c(-c2c(Cl)nc(-n3cccn3)nc2N2CCC(C)CC2)c(F)c1 [Example 10] here?
A: at most 14%

Q: With CC(Nc1nc(C#N)nc(Cl)c1-c1c(F)cc(OCCCCl)cc1F)C(C)(C)C (stereo not shown) [Example 37] as the compound, how does the relative pathogen growth (Pyricularia oryzae) read?
A: at most 14%
